Results published in article doi:10.1101/2025.10.22.684039.
These are yes or no findings as the source states them, for the method shown. Binding seen in cells or lysates may run through a third protein. Some results given as binding are weak or reduced against the parent protein; the word gives no strength.

Protein sequences, listed by entry. Tags and fused reporters are not part of them.
UniProt Q9H4L5: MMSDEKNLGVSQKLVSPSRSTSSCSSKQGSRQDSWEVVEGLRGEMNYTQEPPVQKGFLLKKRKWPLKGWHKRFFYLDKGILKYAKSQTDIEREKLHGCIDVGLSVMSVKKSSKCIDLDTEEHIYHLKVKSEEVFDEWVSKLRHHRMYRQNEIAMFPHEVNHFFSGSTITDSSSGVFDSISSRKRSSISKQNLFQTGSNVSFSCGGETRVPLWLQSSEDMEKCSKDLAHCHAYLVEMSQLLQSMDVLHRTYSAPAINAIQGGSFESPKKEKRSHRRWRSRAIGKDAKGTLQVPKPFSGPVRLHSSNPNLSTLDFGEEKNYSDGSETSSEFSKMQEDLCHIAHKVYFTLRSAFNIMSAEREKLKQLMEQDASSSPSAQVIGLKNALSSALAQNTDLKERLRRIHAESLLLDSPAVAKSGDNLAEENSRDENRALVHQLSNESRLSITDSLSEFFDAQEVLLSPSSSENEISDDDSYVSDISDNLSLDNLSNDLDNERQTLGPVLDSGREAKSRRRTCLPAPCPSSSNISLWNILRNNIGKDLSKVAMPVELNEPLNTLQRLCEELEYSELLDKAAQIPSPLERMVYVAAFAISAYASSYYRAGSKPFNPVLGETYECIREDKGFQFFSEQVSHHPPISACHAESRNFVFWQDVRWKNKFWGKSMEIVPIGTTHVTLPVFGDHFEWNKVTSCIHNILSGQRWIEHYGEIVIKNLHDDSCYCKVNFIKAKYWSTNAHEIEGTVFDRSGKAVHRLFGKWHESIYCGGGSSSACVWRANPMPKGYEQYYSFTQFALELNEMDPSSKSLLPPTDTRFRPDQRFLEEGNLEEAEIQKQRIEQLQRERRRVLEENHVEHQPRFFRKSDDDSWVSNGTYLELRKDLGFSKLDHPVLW

Target: T1, VAPA (human (endogenous in HeLa)) (UniProt Q9P0L0)
T1 sequence: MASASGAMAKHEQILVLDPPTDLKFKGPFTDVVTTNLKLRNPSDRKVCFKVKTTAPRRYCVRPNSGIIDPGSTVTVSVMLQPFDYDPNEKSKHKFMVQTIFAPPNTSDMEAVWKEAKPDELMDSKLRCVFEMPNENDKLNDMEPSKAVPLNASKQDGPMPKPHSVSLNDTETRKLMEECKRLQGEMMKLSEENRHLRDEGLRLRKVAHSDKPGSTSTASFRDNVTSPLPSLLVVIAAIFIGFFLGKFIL
Assay: co-IP

With ORP3 (from UniProt Q9H4L5 1-887) the binding was “binds”.
